Results deposited as PubChem BioAssay AID1224826 (NIAID, 2016).

Test: 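Genes that change LPS-induced Tnf promoter activity in mouse macrophages when knocked down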 (primary screen)
System: RAW264.7 G9 macrophages from mouse bearing reporters for p65 (GFP) and the Tnf promoter (mCherry)
Knock-down reagent: siRNA pool against mouse genes, 100 nM
Timing: 16 h of LPS stimulation, after 2 days of siRNA transfection
Conditions: bacterial lipopolysaccharide (Salmonella minnesota R595), 10 ng/ml
Read-out: 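Imaged Tnf reporter mCherry in nuclei, minus background, normalised per plate to the median and expressed as robust z-scores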
Direction: Tnf reporter robust z-score: higher = stronger Tnf promoter reporter signal after LPS
Hit rule: 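a well counts as active at a score of -1.3 or below (Tlr4 knock-down control median) or above 3 (raised signal); controls and wells holding fewer than 50 cells are excluded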
Calls: active = Tnf reporter clearly lowered or raised; inactive = no clear change in Tnf reporter
In all, the deposit lists about 17,000 reagents; shown is a random part of them. About 1,110 of them (6.6%) count as active. 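Active means lowered or raised reporter signal; replicate intensities are raw and not normalised per plate.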 Unmarked entries are inactive. Not all columns of the deposit are shown. No sequences are given here.

With knock-down of Cypt1 (GeneID 66742), the record shows Tnf reporter robust z-score -0.66; fewer than 50 cells in well enough cells in well.
Silencing of St14 (GeneID 19143) resulted in: Tnf reporter robust z-score -0.46; fewer than 50 cells in well enough cells in well.
For Bex2 (GeneID 12069), the values are Tnf reporter robust z-score 2.67; fewer than 50 cells in well enough cells in well.
Against Krtap19-4 (GeneID 170654), the entry reads Tnf reporter robust z-score 1.13; fewer than 50 cells in well enough cells in well.
Tln1 (GeneID 21894) scored Tnf reporter robust z-score 0.92; fewer than 50 cells in well enough cells in well.
Against Krtap19-5 (GeneID 16704) the deposit lists Tnf reporter robust z-score -1.07; fewer than 50 cells in well enough cells in well.
Gak (GeneID 231580) scored Tnf reporter robust z-score 0.41; fewer than 50 cells in well enough cells in well.
Pigk (GeneID 329777) gave Tnf reporter robust z-score -0.55; fewer than 50 cells in well enough cells in well.
With knock-down of Or52p1 (GeneID 259078), the screen gave Tnf reporter robust z-score 1.98; fewer than 50 cells in well enough cells in well.
Dpysl5 (GeneID 65254) scored Tnf reporter robust z-score -0.5; fewer than 50 cells in well enough cells in well.
Pcdhb11 (GeneID 93882) scored fewer than 50 cells in well fewer than 50 cells per well; well left out of calls.
For Gtf3c1 (GeneID 233863), the entry reads Tnf reporter robust z-score -1.02; fewer than 50 cells in well enough cells in well.
Knock-down of Npb (GeneID 208990) came out at: Tnf reporter robust z-score -0.44; fewer than 50 cells in well enough cells in well.
Depletion of 9630013D21Rik (GeneID 319743) gave: fewer than 50 cells in well fewer than 50 cells per well; well left out of calls.
For Accs (GeneID 329470), the entry reads fewer than 50 cells in well fewer than 50 cells per well; well left out of calls.

4 entries from above in another layout:
target gene | Tnf reporter robust z-score | fewer than 50 cells in well
Dpysl5 (GeneID 65254) | -0.5 | enough cells in well
Pcdhb11 (GeneID 93882) | – | fewer than 50 cells per well; well left out of calls
Gtf3c1 (GeneID 233863) | -1.02 | enough cells in well
Npb (GeneID 208990) | -0.44 | enough cells in well

The results go on:
With knock-down of Pdpk1 (GeneID 18607) the results were Tnf reporter robust z-score 0.3; fewer than 50 cells in well enough cells in well.
For Or6c3 (GeneID 258544), the entry reads fewer than 50 cells in well fewer than 50 cells per well; well left out of calls.
For Cd247 (GeneID 12503), the values are Tnf reporter robust z-score 0.27; fewer than 50 cells in well enough cells in well.
For Atl2 (GeneID 56298) the deposit lists Tnf reporter robust z-score -0.11; fewer than 50 cells in well enough cells in well.
For Iigp1 (GeneID 60440), the entry reads Tnf reporter robust z-score -0.79; fewer than 50 cells in well enough cells in well.
Knock-down of Gng2 (GeneID 14702) came out at: Tnf reporter robust z-score 0.59; fewer than 50 cells in well enough cells in well.
Against Scn5a (GeneID 20271), the entry reads Tnf reporter robust z-score 0.63; fewer than 50 cells in well enough cells in well.
After knock-down of D130079A08Rik (GeneID 320671), the record shows Tnf reporter robust z-score -0.2; fewer than 50 cells in well enough cells in well.
After knock-down of Chrm2 (GeneID 243764), the record shows Tnf reporter robust z-score 1.16; fewer than 50 cells in well enough cells in well.
After knock-down of Bmp8a (GeneID 12163), the screen gave Tnf reporter robust z-score -0.81; fewer than 50 cells in well enough cells in well.
With knock-down of Mc4r (GeneID 17202) the results were Tnf reporter robust z-score 0.31; fewer than 50 cells in well enough cells in well.
Reln (GeneID 19699) scored Tnf reporter robust z-score -0.07; fewer than 50 cells in well enough cells in well.
